{"source": "PubChem BioAssay AID493014", "about": "(National Center for Advancing Translational Sciences (NCATS), 2011)", "note": "In all, about 340,000 compounds went through this assay and about 170 (0.05%) were called active. Inconclusive means that the source gave no clear call. Such entries were picked first, then a sample of the others. The call rests on the fitted dose curve; in most records, active means well fitted inhibition curve with a large enough effect in the signal ratio, with a control signal flat (not every such curve was filed as active); inconclusive means small, poorly fitted or top-dose-only effect, or effect the other way, or a change in a side signal; inactive means flat fitted curve, though single readings scatter; the % refers to the signal ratio. Where the call is inconclusive, the potency comes from a doubtful curve fit. Potency means the concentration at half of the fitted maximal effect.", "data": [{"assay": "qHTS Assay to Find Inhibitors of Chronic Active B-Cell Receptor Signaling;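 on activity change, negative = inhibition: plate controls were basal doxycycline-induced cells for no effect and cells given 10 µM MG132 for full effect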", "settings": "ABC-DLBCL IkBa-CBG/CBR reporter, luminescence ratio (green luciferase fused to IkBa over red control in TMD8 lymphoma cells), 4 h; activity change, negative = inhibition: at 46.1 µM (top of the series)", "in_short": "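Cell line TMD8 (human ABC DLBCL), stably expressing tet-inducible CBG68-IkBa fusion and CBR; IMDM/0.5% FBS; cpd up to 46 uM; dox induction, 4 h, 37C/5% CO2; dual luminescence; green/red ratio; MG132 control.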", "values": [{"smiles": "O=C1Nc2ccc(Cl)cc2/C1=C/C1CC=CCC1", "note": "(configuration not stated)", "Potency": "inconclusive: 25.9 µM [cytotoxic, single point]"}, {"smiles": "CCN1CCN(c2nc3sc4c(c3c3ncnn23)CC(C)CC4)CC1", "note": "(configuration not stated)", "activity change, negative = inhibition": "inconclusive: 7.51%"}, {"smiles": "CC1(C)OC(c2ccccc2)=C/C(=C/C=C2C(=O)c3ccccc3C2=O)O1", "activity change, negative = inhibition": "inconclusive: 29.6%"}, {"smiles": "C=CCOc1ccc(C2C(C#N)=C(N)N(Nc3ccccc3)C3=C2C(=O)CCC3)cc1OC", "note": "(configuration not stated)", "activity change, negative = inhibition": "inconclusive: -3.96%"}, {"smiles": "CC1(C)C(N(O)C(=O)Nc2ccc(Cl)cc2)N(c2ccc(Cl)cc2)C(=O)N1CC(=O)NN", "note": "(configuration not stated)", "Potency": "inconclusive: 29.1 µM [rising, single point]"}, {"smiles": "Cc1ccc(C(=O)O/N=C/c2c(C)nn(C)c2Cl)cc1", "activity change, negative = inhibition": "inconclusive: 5.75%"}, {"smiles": "O=c1[nH]c(CN2CCN(c3ccccc3O)CC2)nc2scc(-c3ccccc3Cl)c12", "activity change, negative = inhibition": "inconclusive: 9.47%"}, {"smiles": "COc1ccccc1NNC(=O)c1cc(C(C)(C)C)nn1Cc1ccccc1", "Potency": "inconclusive: 0.631 µM [falling, full curve, poor fit]"}, {"smiles": "CCN(CC)C(=S)NC(=O)Cc1ccccc1", "activity change, negative = inhibition": "inactive"}, {"smiles": "O=C(Nc1ccc(F)cc1F)Nc1ccccc1C(=O)NCCN1CCNC1=O", "Potency": "inconclusive: 12.6 µM [falling, single point]"}, {"smiles": "CCC(C)[C@@H]1NC(=O)N(CCCN2CCCC2=O)C1=O", "note": "(some centres not stated)", "activity change, negative = inhibition": "inactive"}, {"smiles": "Cc1cc(C)n(-c2nc(-c3ccc(Cl)c(Cl)c3)cs2)n1", "activity change, negative = inhibition": "inconclusive: 4.86%"}, {"smiles": "CCCCOc1ccccc1-c1ccccc1CN1[C@@H](C(C)C)COCCS1(=O)=O", "activity change, negative = inhibition": "inconclusive: 6.7%"}, {"smiles": "Cc1occc1C(=O)N/N=C/c1ccc(Br)s1", "Potency": "inconclusive: 20 µM [falling, partial curve]"}, {"smiles": "OCC1(CCOc2ccccc2)CCN(Cc2cc(Cl)ccc2O)CC1", "activity change, negative = inhibition": "inactive"}, {"smiles": "CN(c1ccccc1)c1nc(N)c([N+](=O)[O-])c(N2CCCCCC2)n1", "activity change, negative = inhibition": "inconclusive: 20.8%"}, {"smiles": "O=S(=O)(Cc1ccccc1)N1CCc2ccccc2C1", "activity change, negative = inhibition": "inconclusive: 14.2%"}, {"smiles": "CCOC(=O)/C=C/C(=O)OCC(=O)N1CCN(C(=O)c2ccco2)CC1", "activity change, negative = inhibition": "inactive"}, {"smiles": "O=c1ccnc(SCc2ccccc2Cl)[nH]1", "activity change, negative = inhibition": "inconclusive: -5.7%"}, {"smiles": "COc1ccc(/C=N/N2CCOCC2)cc1Cn1nc(C)c([N+](=O)[O-])c1C", "activity change, negative = inhibition": "inconclusive: -12.2%"}, {"smiles": "O=C(Cn1c(=O)n(Cc2ccco2)c(=O)c2c3c(sc21)CCCC3)Nc1ccccc1", "Potency": "inconclusive: 1.46 µM [rising, full curve, poor fit]"}, {"smiles": "CN(c1ccccc1)c1nc(N)c([N+](=O)[O-])c(NCc2ccccc2)n1", "activity change, negative = inhibition": "inconclusive: 13.3%"}, {"smiles": "O=c1c(-c2ccc(O)cc2)coc2c(C3O[C@H](CO)[C@@H](O)[C@H](O)[C@H]3O)c(O)ccc12", "note": "(some centres not stated)", "activity change, negative = inhibition": "inconclusive: 3.94%"}, {"smiles": "Oc1ccc(-c2csc(Nc3ncccn3)n2)c(O)c1", "Potency": "inconclusive: 35.5 µM [falling, single point]"}, {"smiles": "Cc1ccc(NC(=O)C2C3C=CC4(CN(Cc5cccnc5)C(=O)C24)O3)cc1", "note": "(configuration not stated)", "activity change, negative = inhibition": "inconclusive: 4.37%"}, {"smiles": "O=C(NCc1ccncc1)Nc1cccc([N+](=O)[O-])c1", "activity change, negative = inhibition": "inconclusive: 26.5%"}, {"smiles": "CC(C)CC1Nc2ncnc(N3CCCCC3)c2N(Cc2ccccc2)C1=O", "note": "(configuration not stated)", "activity change, negative = inhibition": "inconclusive: -9.94%"}, {"smiles": "Cn1c(-c2cccs2)nc2ccccc21", "activity change, negative = inhibition": "inactive"}, {"smiles": "CN1C(=S)SC(/[N+]([O-])=C/c2ccc(Cl)cc2)C1(C)C", "note": "(configuration not stated)", "activity change, negative = inhibition": "inconclusive: 7.47%"}, {"smiles": "COc1ccc(O)c(C=Nc2cc(NC(C)=O)c(Cl)cc2Cl)c1", "activity change, negative = inhibition": "inactive"}, {"smiles": "O=c1c2cc(NC(=S)NC3CCCC3)ccc2nc2n1CCCCC2", "Potency": "inconclusive: 22.4 µM [falling, single point]"}, {"smiles": "Cc1cc2nc(/N=C(\\N)NC(=O)C(C)C)nc(C)c2cc1C", "activity change, negative = inhibition": "inconclusive: 19.4%"}, {"smiles": "CC(C(=O)Nc1ccc(F)cc1Cl)N1CCN(S(=O)(=O)c2cccs2)CC1", "note": "(configuration not stated)", "activity change, negative = inhibition": "inconclusive: 11.4%"}, {"smiles": "C/C(=N\\NC(=O)c1cccnc1)c1ccc(Br)cc1", "activity change, negative = inhibition": "inconclusive: -17.5%"}, {"smiles": "CCC1(c2ccccc2)ON(c2c(Br)cccc2Br)C1=O", "note": "(configuration not stated)", "activity change, negative = inhibition": "inactive"}, {"smiles": "Nc1nnc(SCC(=O)Nc2nccs2)s1", "activity change, negative = inhibition": "inactive"}, {"smiles": "O=C1Nc2ccccc2C(O)(C(=O)NCc2ccc3c(c2)OCO3)N1c1ccc(Cl)c(Cl)c1", "note": "(configuration not stated)", "Potency": "inconclusive: 5.62 µM [falling, full curve]"}, {"smiles": "Cc1cc(C)c2ccc3c(C)c(C)n(C)c3c2n1", "activity change, negative = inhibition": "inconclusive: -0.983%"}, {"smiles": "Nc1nnc(/C=C/c2ccccc2)s1", "Potency": "inconclusive: 35.5 µM [falling, single point]"}, {"smiles": "COc1ccc2nc(C3CCCCC3)nc(C3CCCCC3)c2c1", "activity change, negative = inhibition": "inconclusive: 4.24%"}, {"smiles": "CCCc1cc(C(=O)OC)c(NC(=O)CCCC(=O)O)s1", "activity change, negative = inhibition": "inconclusive: 4.66%"}, {"smiles": "COc1ccccc1-c1nc(SC)n[nH]1", "Potency": "inconclusive: 35.5 µM [falling, single point]"}, {"smiles": "COc1ccccc1N1CCN(C2CCCN(C(=O)c3cc(C)oc3C)C2)CC1", "note": "(configuration not stated)", "activity change, negative = inhibition": "inconclusive: -16%"}, {"smiles": "CC(C)n1cnc2c(Nc3ccc(C(=O)O)cc3)nc(Cl)nc21", "Potency": "inconclusive: 31.6 µM [falling, single point]"}, {"smiles": "CCC1CCCCN1C(=O)CSc1nnc(-c2ccco2)o1", "note": "(configuration not stated)", "activity change, negative = inhibition": "inconclusive: 13.8%"}, {"smiles": "CCOC(=O)[C@H]1[C@H]2COc3cc(OC)ccc3[C@@H]2N2C(=O)c3cc(C)ccc3NC(=O)[C@@]12C", "activity change, negative = inhibition": "inconclusive: -12.3%"}, {"smiles": "Cc1ccsc1S(=O)(=O)N1CCC(CO)(CC2CCCCO2)CC1", "note": "(configuration not stated)", "Potency": "inconclusive: 35.5 µM [falling, partial curve, poor fit]"}, {"smiles": "O=C(Cc1ccc(O)cc1)NCCNC(=S)NCc1ccccc1", "activity change, negative = inhibition": "inconclusive: 16.2%"}, {"smiles": "Cc1cccc2c1-c1sc(C(=O)NCCCN3CCCC(C)C3)cc1CO2", "note": "(configuration not stated)", "activity change, negative = inhibition": "inconclusive: 2.56%"}, {"smiles": "Cc1ccc(Oc2ccc(S(=O)(=O)Nc3ccc(C(=O)O)cc3)cc2)cc1", "activity change, negative = inhibition": "inconclusive: -11.1%"}, {"smiles": "COc1ccc(NC(=O)COC(=O)c2ccc(-n3cnnn3)cc2)cc1Cl", "activity change, negative = inhibition": "inconclusive: 12.8%"}, {"smiles": "Cc1nc2ccc(S(=O)(=O)Nc3cccc(-c4nc5cccnc5s4)c3)cc2s1", "Potency": "inconclusive: 18.4 µM [cytotoxic, single point]"}]}]}
